Experimental data from the supplement of paper PMC12889115.
The other results are listed elsewhere or left out. These are raw signals, not scaled to a control.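 First-pass screen: polymyxin B was added at a level that permeabilizes the Salmonella outer membrane while sparing the inner membrane. DMSO wells, with and without polymyxin B, defined maximum growth. Because plates differed from one another, each plate's data were ranked separately and the compounds with the lowest OD600 were carried forward as hits.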

Test system: Salmonella enterica serovar Typhimurium SL1344
Test: bacterial growth OD600 after 18 h with compound and polymyxin B; higher = more bacterial growth (less inhibition)
Details: 50 µM, Mueller-Hinton broth

| Compound | bacterial growth OD600 (polymyxin B 0.75 µg/mL) | bacterial growth OD600 (polymyxin B 1 µg/mL) |
| --- | --- | --- |
| COc1ccc(C(=O)N2CCC(C3(C)NC(=O)N(Cc4cccc(OC)c4OC)C3=O)CC2)cc1 (stereo not given) | 0.804 |  |
| CCN1CCN(CC(O)COc2cccc(CN3CCCCO3)c2)CC1 (stereo not given) |  | 1.13 |
| COC(=O)C1CCCCN1C(=O)c1c(OC)cc(=O)n2c1CCN(Cc1ccc(C(C)C)cc1)CC2 (stereo not given) | 0.815 |  |
| C=C(C)CNC(=O)c1ccc(OC2CCN(C(=O)C3CC3)CC2)cc1 |  | 1.02 |
| CC#CC(=O)N1CCc2[nH]nc(-c3ccc4c(c3)OCO4)c2C1 | 0.71 |  |
| CN(Cc1ccccn1)Cc1cn(Cc2ccccc2)nc1-c1ccc2c(c1)OCO2 |  | 0.815 |
| Cc1ccc2c(c1)CN(Cc1ccccc1O)CC(C)O2 (stereo not given) | 0.661 |  |
| C=CCNC(=O)N1CCC2(CCCN(CC3CCCCC3)C2=O)C1 (stereo not given) |  | 0.809 |
| COc1cccc(OCc2nc(C(=O)NCc3cccnc3)co2)c1 |  | 0.991 |
| COc1ccc(NC(=O)CCC2CCN(Cc3ccc(SC)cc3)CC2)c(OC)c1 | 0.773 |  |
| COc1cccc(OCc2nc(C(=O)N3CCCC3c3nccs3)co2)c1 (stereo not given) |  | 0.947 |
| COc1cccc(OCC(O)CNC(=O)c2oc3ccc(C)cc3c2C)c1 (stereo not given) |  | 0.884 |
| COc1ccccc1OC1CCN(C(=O)CCC2(Cc3ccccc3)CCC(=O)N2)CC1 (stereo not given) | 0.762 |  |
| O=C(C1CCN(c2nc(-c3ccccc3)nc3c2CCC3)CC1)N1CCC[C@H]1CO | 0.924 |  |
| Cn1cnnc1SCC(=O)NC1CCCN(CCc2ccccc2)C1 (stereo not given) | 0.939 |  |
| COCCn1cc(C(=O)NCC2(c3ccccc3)CCCC2)c(=O)c(C(=O)N2CCCCC2CO)c1 (stereo not given) | 0.818 |  |
| O=C(CCC1(Cc2cccs2)CCC(=O)N1)NCc1nc(-c2ccccc2)cs1 (stereo not given) | 0.862 |  |
| CC(C)(CO)CNC(=O)C1CCC(=O)N(CCc2cccc(F)c2)C1 (stereo not given) |  | 1 |
| COc1cccc(-c2cc3c(c(OC)c2)OCCN(Cc2ccc(C)cc2)C3)n1 | 0.898 |  |
| COC(=O)c1ccccc1C(=O)N1CCCC(N(C)Cc2ccccc2)C1 (stereo not given) |  | 0.989 |

Two records picked at random from the list so far, as already listed:

| Compound | bacterial growth OD600 (polymyxin B 0.75 µg/mL) | bacterial growth OD600 (polymyxin B 1 µg/mL) |
| --- | --- | --- |
| Cn1cnnc1SCC(=O)NC1CCCN(CCc2ccccc2)C1 (stereo not given) | 0.939 |  |
| CCN1CCN(CC(O)COc2cccc(CN3CCCCO3)c2)CC1 (stereo not given) |  | 1.13 |
